PubChem BioAssay AID1671195 – Yale University | 2021
In all, the deposit lists about 22,000 reagents; this is a random part of them. About 1,510 of all reagents (6.9%) count as active. 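Active includes knockdowns raising or lowering LDL uptake; positive z-scores mean more uptake, negative mean less.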 Unmarked entries are inactive.

Screen: 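Genes whose knockdown alters LDL uptake in liver cancer cells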 (primary screen)
Cell system: human Huh7 hepatoma cells
Reagent: siRNA pool against human genes, 18 nM
Timing: about 2 to 2.5 days of knockdown, then 8 h LDL uptake
Challenge: DiI-labelled LDL at 30 µg/ml for 8 h, in lipoprotein-deficient serum medium
Measurement: 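Fluorescent LDL signal imaged in cells, scaled to the plate median, robust z-score for each replicate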
Direction: robust z-score: higher = more LDL uptake after knockdown
Call rule: 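Active when two or more replicates show a robust z-score above 2 or below -2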

| target gene | robust z-score, replicate 1 | robust z-score, replicate 2 | robust z-score, replicate 3 |
| --- | --- | --- | --- |
| DEFB126 (defensin beta 126) | -1.05 | -0.767 | -1.27 |
| ERCC4 (ERCC excision repair 4, endonuclease catalytic subunit) | 0.645 | 0.788 | 0.94 |
| OR51M1 (olfactory receptor family 51 subfamily M member 1) | -0.794 | -0.67 | -0.933 |
| NPRL2 (NPR2 like, GATOR1 complex subunit) | -1.35 | -1.72 | -0.806 |
| PNPLA5 (patatin like domain 5, triacylglycerol lipase) | -1.02 | -1.6 | -1.2 |
| FCMR (Fc mu receptor) | -2.01 | -1.52 | -2.12 |
| OR1S1 (olfactory receptor family 1 subfamily S member 1) | 0.781 | 0.49 | 0.857 |
| RPEL1 (ribulose-5-phosphate-3-epimerase like 1) | -0.922 | -0.192 | -0.26 |
| LINC01619 (long independently transcribed non-coding RNA 1619) | -0.287 | -0.0811 | -0.48 |
| IRAK1 (interleukin 1 receptor associated kinase 1) | -0.595 | -0.326 | 0.739 |
| KRTAP9-2 (keratin associated protein 9-2) | 0.125 | 0.917 | 0.748 |
| LOC440806 (retired record) | -1.59 | -0.866 | -0.498 |
| LINC02347 (long independently transcribed non-coding RNA 2347) | -0.136 | -1 | -0.064 |
| LRRC8C (leucine rich repeat containing 8 VRAC subunit C) | 0.66 | 1.93 | 1.56 |
| LOC441842 (retired record) | 3.85 (active) | 2.51 | 3.24 |
| CTSV (cathepsin V) | -0.207 | -0.832 | -0.529 |
| GABRD (gamma-aminobutyric acid type A receptor subunit delta) | 0.378 | 0.161 | 0.688 |
| TAS2R16 (taste 2 receptor member 16) | -0.695 | -0.321 | -0.102 |
| PSMB5 (proteasome 20S subunit beta 5) | 1.31 | 1.53 | 1.6 |
| SLC35G3 | -1.14 | -1.79 | -1.72 |
| SHISA9 (shisa family member 9) | 1.42 | 1.46 | 2.04 |
| PCOLCE2 (procollagen C-endopeptidase enhancer 2) | 1.32 | 0.5 | 1.15 |
| TJP3P1 (TJP3 pseudogene 1) | -0.615 | -0.872 | -1.57 |
| PEAK1 (pseudopodium enriched atypical kinase 1) | 0.0989 | -0.437 | 0.547 |
| FLVCR1 (FLVCR choline and heme transporter 1) | 0.238 | -0.336 | 0.478 |
| NCCRP1 (NCCRP1, F-box associated domain containing) | -0.836 | -0.984 | -0.799 |
| PRPF4 (pre-mRNA splicing tri-snRNP complex factor PRPF4) | 4.07 (active) | 1.66 | 2.45 |
| ZNF556 (zinc finger protein 556) | -0.181 | -0.0607 | -0.313 |
| CORO7 (coronin 7) | 0.82 | 0.0326 | 1.4 |
| RUSF1 (RUS family member 1) | -0.284 | -0.237 | -0.426 |
| MEF2D (myocyte enhancer factor 2D) | 0.252 | 0.0145 | -0.989 |
| FN1 (fibronectin 1) | -1.08 | -1.98 | -0.494 |
| SMIM30 (small integral membrane protein 30) | 1.21 | -0.0998 | 1.28 |
| LINC00326 (long independently transcribed non-coding RNA 326) | 0.129 | 0.339 | 0.217 |
| SCAPER (S-phase cyclin A associated protein in the ER) | 0.875 | -1.06 | 0.417 |

Continued (3 carried over from the part before).
| target gene | robust z-score, replicate 1 | robust z-score, replicate 2 | robust z-score, replicate 3 |
| --- | --- | --- | --- |
| SMIM30 (small integral membrane protein 30) | 1.21 | -0.0998 | 1.28 |
| LINC00326 (long independently transcribed non-coding RNA 326) | 0.129 | 0.339 | 0.217 |
| SCAPER (S-phase cyclin A associated protein in the ER) | 0.875 | -1.06 | 0.417 |
| MS4A14 (membrane spanning 4-domains A14) | -0.489 | -0.383 | -0.43 |
| ADAM30 (ADAM metallopeptidase domain 30) | -0.402 | -1.13 | -0.261 |
| WDR13 (WD repeat domain 13) | 1.09 | 1.42 | 0.809 |
| LINC02906 (long independently transcribed non-coding RNA 2906) | -0.226 | -0.0307 | -0.487 |
| MCRIP1 (MAPK regulated corepressor interacting protein 1) | 0.608 | 0.928 | 0.848 |
| PGK1 (phosphoglycerate kinase 1) | -0.583 | -0.031 | -0.873 |
| CERS3 (ceramide synthase 3) | 3.66 (active) | 3.58 | 3.86 |
| KIAA2013 | -1.07 | -1.13 | -0.788 |
| TERF1 (telomeric repeat binding factor 1) | 0.706 | 1.33 | 0.925 |
| SLC7A2 | -1.59 | -1.6 | -1.71 |
| NSUN5P2 (NSUN5 pseudogene 2) | 0.533 | 1.02 | 1.04 |
| CTBP1 (C-terminal binding protein 1) | -1.77 | -1.28 | -1.91 |
| PSPN (persephin) | -1.98 (active) | -0.244 | -2.37 |
| HTR6 (5-hydroxytryptamine receptor 6) | -0.388 | -0.0965 | -0.586 |
| KRT37 (keratin 37) | -1.77 | -0.529 | -1.01 |
| PAQR3 (progestin and adipoQ receptor family member 3) | -0.423 | -0.156 | -0.26 |
| SCGB1C1 (secretoglobin family 1C member 1) | -0.128 | -0.12 | -0.595 |
| RAG2 (recombination activating 2) | 1.2 | 0.258 | 1.03 |
| CRB3 (crumbs cell polarity complex component 3) | 0.618 | 1.2 | 1.86 |
| FIGN (fidgetin, microtubule severing factor) | 0.708 | 1.86 | 0.729 |
| DTNA (dystrobrevin alpha) | 1.54 | 2.15 | 0.793 |
| RPS18 (ribosomal protein S18) | -0.932 | 0.407 | 0.282 |
| ACOXL (acyl-CoA oxidase like) | -1.18 | -0.784 | -0.708 |
| NNMT (nicotinamide N-methyltransferase) | -0.39 | 0.307 | -0.438 |
| ACOT12 (acyl-CoA thioesterase 12) | -0.239 | 0.584 | 0.23 |
| METAP2 (methionyl aminopeptidase 2) | 0.117 | -0.129 | -0.103 |
| COQ10A (coenzyme Q10A) | 1.61 | 1.15 | 1.69 |
| SLK (STE20 like kinase) | 0.223 | 0.276 | 0.0903 |
| CLXN (calaxin) | 1.03 | 2.19 | 1.77 |
| SSU72 (SSU72 homolog, RNA polymerase II CTD phosphatase) | -0.0992 | -1.1 | -1.29 |
| CCNQ (cyclin Q) | -1.02 | -0.132 | 0.162 |
| HOXC4 (homeobox C4) | 0.312 | -0.744 | -0.379 |
| MLC1 (modulator of VRAC current 1) | -0.301 | 0.739 | 0.842 |
